PubChem BioAssay AID1259424 | University of Nebraska Medical Center | 2018

Purpose: 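Find knockdowns that reproduce the expression shifts seen after KSR1 loss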 (primary screen)
Cell system: human HCT116 colon cancer cells
Reagents: siRNA pool against human genes, 50 nM
Read-out: 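Six signature mRNAs by branched-DNA multiplex assay, scaled to two housekeeping genes and non-targeting median, log2; matched to mean KSR1 knockdown profile by Pearson correlation and euclidean distance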
Reading the numbers: mean correlation with KSR1 profile and KSR1 correlation: higher = expression change more like KSR1 knockdown; mean distance from KSR1 profile: higher = expression change less like KSR1 knockdown
This is one part, drawn at random, of about 14,000 reagents tested. 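Higher correlation or smaller distance means closer resemblance to KSR1 loss; control wells, including KSR1 knockdowns, recur on many plates.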 Not stated in the record: the time to read-out.

Target gene,mean correlation with KSR1 profile,mean distance from KSR1 profile,"KSR1 correlation, replicate 1","KSR1 correlation, replicate 2","KSR1 correlation, replicate 3"
FBP2 (GeneID 8789),0.192,1.27,0.269,0.568,-0.171
TTBK2 (GeneID 146057),-0.176,3.31,0.0547,-0.0455,-0.361
CAPG (GeneID 822),-0.0875,2.41,-0.148,-0.103,0.0731
AKR1D1 (GeneID 6718),0.235,4.98,0.0995,0.172,-0.222
NMRK2 (GeneID 27231),0.253,2.72,-0.331,0.116,0.24
ASMT (GeneID 438),0.218,1.92,0.48,0.194,-0.151
RASA2 (GeneID 5922),-0.617,2.52,-0.654,-0.53,-0.671
PHTF2 (GeneID 57157),-0.588,2.14,-0.76,-0.653,-0.451
UGCG (GeneID 7357),0.193,2.53,0.241,-0.0271,0.2
PBX2 (GeneID 5089),0.133,1.5,0.0558,0.233,0.0981
EOMES (GeneID 8320),0.221,2.97,0.412,0.462,0.0704
PDX1 (GeneID 3651),-0.0809,1.9,0.24,-0.154,0.155
LRRC4 (GeneID 64101),-0.368,4.07,-0.395,-0.266,-0.306
DNAJB11 (GeneID 51726),-0.48,2.19,-0.344,-0.607,-0.404
LRTM1 (GeneID 57408),-0.201,5.12,-0.363,0.164,0.0753
GLRX5 (GeneID 51218),-0.0695,2.94,-0.112,-0.0971,-0.0712
LLGL1 (GeneID 3996),0.337,1.78,0.411,0.366,0.491
NSUN7 (GeneID 79730),0.716,2.35,0.85,0.972,0.0426
DALRD3 (GeneID 55152),0.436,1.51,0.467,0.078,0.4
KCNE4 (GeneID 23704),-0.164,2.97,-0.0194,-0.28,-0.268
LMTK1 (GeneID 9625),0.788,1.77,0.868,0.688,0.486
ARHGEF10 (GeneID 9639),-0.161,2.15,-0.408,-0.185,-0.0445
BCKDHA (GeneID 593),0.506,3.92,0.307,0.455,0.579
SMYD2 (GeneID 56950),-0.101,1.37,-0.0129,-0.207,-0.0902
CDC14B (GeneID 8555),0.365,1.41,0.424,0.201,0.221
PSMB8 (GeneID 5696),-0.361,1.8,-0.271,-0.467,-0.0905
RAB40A (GeneID 142684),0.516,1.32,0.407,0.86,0.0561
GNGT2 (GeneID 2793),-0.462,2.47,-0.658,-0.562,-0.39
TGIF1 (GeneID 7050),-0.47,2.95,-0.238,-0.565,-0.213
CUL1 (GeneID 8454),-0.23,1.78,-0.0361,-0.408,-0.377
H4C6 (GeneID 8361),-0.183,1.71,-0.244,-0.208,-0.0842
COL13A1 (GeneID 1305),-0.0115,1.56,0.0862,0.142,-0.453
GMPS (GeneID 8833),0.47,1.56,0.368,0.429,0.443
MLXIP (GeneID 22877),-0.756,1.88,-0.277,-0.518,-0.68
OXCT2 (GeneID 64064),-0.511,1.37,-0.553,-0.531,-0.355
KCNJ9 (GeneID 3765),0.0055,2.17,0.114,-0.175,0.0811
TUBD1 (GeneID 51174),0.0947,1.89,-0.014,0.116,-0.00495
TF (GeneID 7018),0.351,2.1,0.258,0.365,0.282
ANXA10 (GeneID 11199),0.514,1.8,0.631,0.488,0.19
NUCB1 (GeneID 4924),0.175,2.52,0.0956,0.101,0.046
MAP3K7 (GeneID 6885),0.315,1.44,0.743,0.094,0.314
CCDC77 (GeneID 84318),0.522,1.36,0.324,0.589,0.457
PDPN (GeneID 10630),-0.357,6.03,-0.215,-0.289,-0.407
ARMCX2 (GeneID 9823),0.444,1.32,0.631,0.224,0.426
ALDH2 (GeneID 217),-0.0195,2.44,0.114,0.22,-0.216
MTTP (GeneID 4547),0.0652,0.931,-0.0263,-0.235,0.255
ERMP1 (GeneID 79956),0.636,1.37,0.646,0.759,0.162
H3-3A (GeneID 3020),0.37,1.39,0.18,0.467,0.277
TGDS (GeneID 23483),-0.637,1.88,-0.729,-0.26,-0.454
MLH1 (GeneID 4292),0.174,1.68,-0.187,0.179,0.24
MREG (GeneID 55686),-0.533,3.49,-0.671,-0.628,-0.314
GAR1 (GeneID 54433),0.134,1.16,0.0925,0.064,0.172
EXTL3 (GeneID 2137),0.542,1.41,0.809,0.751,0.446
PRODH2 (GeneID 58510),-0.281,2.6,-0.287,-0.164,-0.298
NCOR1 (GeneID 9611),0.376,2.07,0.379,0.387,0.41
TFAP2C (GeneID 7022),0.341,1.64,0.412,0.288,0.447
ST6GALNAC2 (GeneID 10610),-0.387,2.95,-0.264,-0.574,-0.282
HSD11B1 (GeneID 3290),0.136,1.3,0.215,-0.0466,0.213
PLSCR2 (GeneID 57047),-0.546,4.65,-0.614,-0.353,-0.438
EDN3 (GeneID 1908),0.128,1.57,0.26,0.0316,0.211
MIGA2 (GeneID 84895),-0.346,3.06,-0.4,-0.261,-0.437
CACNA1G (GeneID 8913),-0.531,2.39,-0.379,-0.553,-0.521
ADAMTS7 (GeneID 11173),-0.57,2.9,-0.491,-0.663,-0.603
